Source: publication PMC5424160
No constants are given. Whether binding was seen depends on the method and setting. For part of these data: In cells and extracts the contact can be indirect. Some results given as binding are weak or reduced against the parent protein; the word gives no strength. Sequences can lack the tags named with a protein. One block for each binder: values may come before it.

By UniProt entry, the sequences of proteins in these tests, tags left out.
UniProt O60563: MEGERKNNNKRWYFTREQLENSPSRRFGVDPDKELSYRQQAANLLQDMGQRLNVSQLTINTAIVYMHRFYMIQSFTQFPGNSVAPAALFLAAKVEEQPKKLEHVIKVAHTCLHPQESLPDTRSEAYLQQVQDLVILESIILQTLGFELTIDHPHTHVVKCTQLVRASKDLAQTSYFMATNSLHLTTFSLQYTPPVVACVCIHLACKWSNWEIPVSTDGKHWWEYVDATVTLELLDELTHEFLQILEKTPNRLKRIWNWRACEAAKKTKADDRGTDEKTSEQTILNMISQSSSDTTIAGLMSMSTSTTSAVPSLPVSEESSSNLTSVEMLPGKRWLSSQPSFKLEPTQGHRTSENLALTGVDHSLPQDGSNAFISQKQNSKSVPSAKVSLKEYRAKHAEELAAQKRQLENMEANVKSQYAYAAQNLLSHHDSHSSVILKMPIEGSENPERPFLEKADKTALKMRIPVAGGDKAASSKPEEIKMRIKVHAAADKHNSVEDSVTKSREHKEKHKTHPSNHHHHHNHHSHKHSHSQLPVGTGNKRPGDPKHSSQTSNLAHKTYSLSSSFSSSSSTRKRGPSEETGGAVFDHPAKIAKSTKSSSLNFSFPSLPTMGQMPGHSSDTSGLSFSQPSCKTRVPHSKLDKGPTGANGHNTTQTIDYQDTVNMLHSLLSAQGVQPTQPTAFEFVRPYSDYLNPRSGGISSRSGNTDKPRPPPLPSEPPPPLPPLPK
UniProt P01106: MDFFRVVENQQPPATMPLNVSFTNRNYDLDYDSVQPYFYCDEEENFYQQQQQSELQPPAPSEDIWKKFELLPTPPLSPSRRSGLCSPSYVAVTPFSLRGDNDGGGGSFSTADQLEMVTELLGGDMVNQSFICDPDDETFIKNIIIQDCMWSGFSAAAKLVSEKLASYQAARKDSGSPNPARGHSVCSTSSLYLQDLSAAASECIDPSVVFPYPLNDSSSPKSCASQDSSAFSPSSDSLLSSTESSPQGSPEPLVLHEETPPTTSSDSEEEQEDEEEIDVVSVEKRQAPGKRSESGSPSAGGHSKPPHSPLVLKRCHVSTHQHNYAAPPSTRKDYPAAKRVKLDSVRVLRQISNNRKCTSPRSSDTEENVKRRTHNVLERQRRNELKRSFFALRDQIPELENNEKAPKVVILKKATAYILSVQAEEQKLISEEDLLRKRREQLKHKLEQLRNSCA
UniProt P50750: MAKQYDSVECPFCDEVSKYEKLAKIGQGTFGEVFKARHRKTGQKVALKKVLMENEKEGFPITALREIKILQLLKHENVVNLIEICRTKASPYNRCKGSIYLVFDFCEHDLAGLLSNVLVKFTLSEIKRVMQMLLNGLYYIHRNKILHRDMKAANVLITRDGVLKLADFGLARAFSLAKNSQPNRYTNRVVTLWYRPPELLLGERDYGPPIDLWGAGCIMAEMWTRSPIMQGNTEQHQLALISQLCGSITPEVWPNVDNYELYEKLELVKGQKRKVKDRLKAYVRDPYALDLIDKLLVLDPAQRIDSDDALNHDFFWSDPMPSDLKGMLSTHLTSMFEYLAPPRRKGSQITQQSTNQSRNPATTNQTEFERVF
UniProt P61244: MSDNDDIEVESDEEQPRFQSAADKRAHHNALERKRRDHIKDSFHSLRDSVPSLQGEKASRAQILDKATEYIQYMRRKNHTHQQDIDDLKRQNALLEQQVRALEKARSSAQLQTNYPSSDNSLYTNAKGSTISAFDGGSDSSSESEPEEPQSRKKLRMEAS

Columns and labels:
[1] = target: HA-CycT1 (UniProt O60563); assay: co-IP; HEK293T cells co-transfected with the two tagged proteins; IP with anti-Flag or anti-HA, immunoblot; low-salt IP buffer (0.5% NP-40, 20 mM HEPES pH 7.5, 150 mM NaCl, 2 mM EDTA)
[2] = target: HA-MYC (UniProt P01106); assay: as above
[3] = target: His-MYC (UniProt P01106); assay: native gel or EMSA; supershift EMSA: purified His-MYC, His-MAX and His-Menin mixed in EMSA buffer (50 mM HEPES, 150 mM NaCl, 0.2% BSA, 0.02% Tween 20, 0.5 mM MgCl2, 100 uM DTT) with biotinylated E-box DNA, with or without anti-Menin antibody; room temperature, 5% gel; both purified
[4] = target: GST-MYC (UniProt P01106); assay: pull-down; GST pull-down: purified GST fused protein as bait and purified His-tag protein; pull-down buffer 150 mM NaCl, 50 mM Tris pH 7.5, 0.1% NP-40, 5 mM DTT; western blot; both purified
[5] = target: GST-CDK9 (UniProt P50750); assay: as above
[6] = target: GST-MAX (UniProt P61244); assay: as above

binding [1]: binds
binding [2]: binds
B1: Flag-Menin (protein, UniProt O00255 1-610)
chain: MGLKAAQKTLFPLRSIDDVVRLFAAELGREEPDLVLLSLVLGFVEHFLAVNRVIPTNVPELTFQPSPAPDPPGGLTYFPVADLSIIAALYARFTAQIRGAVDLSLYPREGGVSSRELVKKVSDVIWNSLSRSYFKDRAHIQSLFSFITGTKLDSSGVAFAVVGACQALGLRDVHLALSEDHAWVVFGPNGEQTAEVTWHGKGNEDRRGQTVNAGVAERSWLYLKGSYMRCDRKMEVAFMVCAINPSIDLHTDSLELLQLQQKLLWLLYDLGHLERYPMALGNLADLEELEPTPGRPDPLTLYHKGIASAKTYYRDEHIYPYMYLAGYHCRNRNVREALQAWADTATVIQDYNYCREDEEIYKEFFEVANDVIPNLLKEAASLLEAGEERPGEQSQGTQSQGSALQDPECFAHLLRFYDGICKWEEGSPTPVLHVGWATFLVQSLGRFEGQVRQKVRIVSREAEAAEAEEPWGEEAREGRRRGPRRESKPEEPPPPKKPALDKGLGTGQGAVSGPPRKPPGTVAGTARGPEGGSTAQVPAPTASPPPEGPVLTFQSEKMKGMKELLVATKINSSAIKLQLTAQSQVQMKKQKVSTPSDYTLSFLKRQRKGL

binding [3]: binds
binding [4]: binds
binding [5]: no binding
binding [6]: no binding
B2: His-Menin (protein, UniProt O00255 1-610)
chain: B1 chain
